Results: PubChem BioAssay AID1347076 (National Center for Advancing Translational Sciences (NCATS), 2019)
Screen size: about 400,000 compounds; about 13,000 (3.2%) were called active. The inconclusive results got no clear call from the source; some entries with a clear call stand among them for comparison. The call rests on the fitted dose curve; in most records, active means well fitted cell-killing curve with a large enough effect; inconclusive means small, poorly fitted or top-dose-only effect, or effect the other way; inactive means flat fitted curve, though single readings scatter. Potencies beside an inconclusive call are fits to weak or partial responses and may not hold up.

experiment: qHTS assay for MDR1-selective chemotherapeutics: Primary screen using the drug-selected MDR subline cells KB-V1; settings: KB-V1 MDR cells viability, CellTiter-Glo, 72 h; activity change, negative = cytotoxicity: at 46.1 µM (top of the series); further: nearly all actives have a fitted effect of over 60% in size
How it was run: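 Luminescent ATP read-out (CellTiter-Glo, 10 min) measures survival of drug-selected KB-V1 MDR cells after 72 h, 37 degrees C compound exposure. Medium: phenol-red-free DMEM, 10% FBS. Values from fitted concentration-response curves.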
On the % scale 0 is the no-effect control and ±100 the full control effect; potency means the concentration at half of the fitted maximal effect.

SMILES	Potency	activity change, negative = cytotoxicity
Cn1cc(S(=O)(=O)N2CCC3(CC2)OCCO3)c(=O)n(C)c1=O	inconclusive: 5.8 µM [rising, full curve]	–
O=C(CN1C(=O)NC2(CCCCC2)C1=O)Nc1ccc(Cl)c(S(=O)(=O)N2CCOCC2)c1	inconclusive: 13 µM [rising, partial curve, poor fit]	–
C1=C(c2ccccc2)Nc2ccccc2N=C1c1ccccc1	inconclusive: 23.1 µM [cytotoxic, single point]	–
CCOC(=O)c1nnn(CC(=O)Nc2cc(C)cc(C)c2)c1C(=O)OCC	inconclusive: 10.3 µM [rising, single point]	–
O=CN(Cc1ccccc1)c1cc([N+](=O)[O-])ccc1OCc1ccccc1	active: 5.8 µM	–
Cc1cc(C)nc(NS(=O)(=O)c2ccc(NC(=O)Cn3c(=O)oc4ccccc43)cc2)n1	inconclusive: 25.9 µM [rising, partial curve]	–
COCCn1c(SCc2ccccc2Cl)nc2c1c(=O)[nH]c(=O)n2C	inconclusive: 9.2 µM [cytotoxic, partial curve]	–
CS(=O)(=O)N(CC(=O)NCCSCc1ccccc1)c1cc(C(F)(F)F)ccc1Cl	inconclusive: 11.6 µM [cytotoxic, partial curve]	–
O=C(Cn1cnc2onc(-c3ccc(F)cc3)c2c1=O)Nc1cccc(C(F)(F)F)c1	inconclusive: 13 µM [cytotoxic, partial curve, poor fit]	–
Cc1noc(C)c1-c1ccc2nc[nH]c(=O)c2c1	inconclusive: 18.4 µM [cytotoxic, partial curve, poor fit]	–
COc1ccccc1N(CC(O)Cn1c2ccccc2c2ccccc21)S(=O)(=O)c1ccccc1 (centres undefined)	inconclusive: 10.3 µM [cytotoxic, partial curve]	–
Cc1ccc(C)c(Cn2cnc3c(cnn3-c3ccc(F)cc3)c2=O)c1	–	inactive: 3.88%
Cn1c(SCC(=O)N2CCCC2=O)nnc1-c1ccccc1F	–	inactive: -1.72%
COc1ccc(OC)c(NC(=S)NCCC(c2ccccc2)c2ccccc2)c1	inconclusive: 18.4 µM [cytotoxic, single point]	–
COc1ccc2cc3c(N)nn(C(=O)c4cccc([N+](=O)[O-])c4)c3nc2c1	–	inactive: 2.55%
COc1ccc(N=C(NN)c2ccc3ccccc3n2)cc1	inconclusive: 20.6 µM [cytotoxic, single point]	–
O=C(/C=C/c1cccs1)c1cc(F)ccc1OC(=O)N1CCOCC1	inconclusive: 18.4 µM [cytotoxic, single point]	–
CCN(CC)C(=O)c1cc([N+](=O)[O-])cc2c1-c1ccc([N+](=O)[O-])cc1C2=C(C#N)C#N	–	inactive: 12.3%
CCN(C#N)c1nc(NC(C)C)nc(NC(C)(C)C)n1	inconclusive: 20.6 µM [cytotoxic, partial curve, poor fit]	–
CCc1ccc(NSc2ccccc2[N+](=O)[O-])cc1	inconclusive: 29.1 µM [cytotoxic, single point]	–
CC(C)OCCCn1c(SC(C)C(=O)NC2CC2)nc2ccccc2c1=O (centres undefined)	inconclusive: 5.17 µM [cytotoxic, full curve]	–
Cc1ccc(NC(=O)c2ncn(CCCN[C@H](C)c3cccc4ccccc34)n2)cc1C	–	inactive: -0.703%

SMILES	Potency	activity change, negative = cytotoxicity
CN(C)c1c([N+](=O)[O-])ncn1C	–	inactive: 6.99%
CCN(CC)S(=O)(=O)c1ccc(N/N=C/c2ccc(O)cc2O)nc1	inconclusive: 1.84 µM [cytotoxic, partial curve, poor fit]	–
CCOc1ccc(NC(=O)N(CCC(C)C)C(C)c2ccco2)cc1 (centres undefined)	inconclusive: 29.1 µM [cytotoxic, single point]	–
CCC(CC)N1CCN(Cc2nc3ccc([N+](=O)[O-])cc3c(=O)n2-c2ccccc2F)CC1	–	inactive: 7.73%
O=C(Nc1ccccc1Cl)Nc1ccccc1Cl	–	inactive: 0%
CCOc1ccc(CC2c3cc(OCC)c(OCC)cc3CCN2C(=O)c2cc(OC)c(OC)c(OC)c2)cc1OCC (centres undefined)	inconclusive: 29.1 µM [cytotoxic, single point]	–
CCOC(=O)c1sc(NC(=O)c2ccc(S(=O)(=O)N3CCCCC3)cc2)nc1-c1ccccc1	inconclusive: 16.4 µM [cytotoxic, partial curve, poor fit]	–
COC(=O)c1sccc1NC(=S)N1CCN(c2cc(C)ccc2C)CC1	inconclusive: 25.9 µM [cytotoxic, single point]	–
O=S1(=O)[C@H]2C[C@@H]3C=C[C@@]2(CN1Cc1ccc(F)cc1)O3	inactive	–
COc1ccc(C(=O)NC(=S)Nc2ccc(N3CCOCC3)cc2)cc1Cl	inconclusive: 20.6 µM [cytotoxic, single point]	–
O=C(NCC1CCOCC1)C1Cc2c(-c3ccccc3Oc3ccccc3)ccnc2O1 (centres undefined)	–	inactive: 0%
CCNC(=S)NN=C1c2ccccc2-c2ccccc21	inconclusive: 20.6 µM [cytotoxic, single point]	–
Cc1cc(C(=O)COC(=O)c2ccccc2O)c(C)n1Cc1cccs1	inconclusive: 29.1 µM [cytotoxic, single point]	–
CCCCOC(=O)c1ccc(NC(=O)CC2NCCNC2=O)cc1 (centres undefined)	inconclusive: 20.6 µM [rising, partial curve, poor fit]	–
COc1ccc(-c2nc(CS(=O)(=O)CC(=O)NCCc3cc(OC)ccc3OC)c(C)o2)cc1	active: 8.2 µM	–
CCc1ccc(NC(=O)c2ccc(NC(=O)C3CCCO3)cc2)cc1 (centres undefined)	active: 23.1 µM	–
O=C(/C=C/c1cccs1)NNC(=O)c1cccc([N+](=O)[O-])c1	–	inactive: 5.03%
NS(=O)(=O)c1ccc(NC(=O)COC(=O)Cn2cnc3ccccc3c2=O)cc1	inconclusive: 18.4 µM [cytotoxic, single point]	–
Cc1cccc(N2C(=O)C(Cc3ccccc3)NC2=S)c1 (centres undefined)	inconclusive: 14.6 µM [cytotoxic, partial curve]	–
COc1ccc2oc(=O)c(C(=O)Nc3cccc(C(=O)O)c3)cc2c1	–	inactive: -3.4%
CC(C)c1nc2oc3c(NCC4CCCO4)ncnc3c2c2c1CCC2 (centres undefined)	inconclusive: 7.31 µM [cytotoxic, partial curve]	–
COc1ccc(CN=C2Nc3ccccc3CS2)cc1	inconclusive: 22.4 µM [cytotoxic, single point]	–

Grouped by structure: those above containing an NH in an aromatic ring
SMILES	Potency	activity change, negative = cytotoxicity
COCCn1c(SCc2ccccc2Cl)nc2c1c(=O)[nH]c(=O)n2C	inconclusive: 9.2 µM [cytotoxic, partial curve]	–
Cc1noc(C)c1-c1ccc2nc[nH]c(=O)c2c1	inconclusive: 18.4 µM [cytotoxic, partial curve, poor fit]	–
